pIC50: −log10 of the molar value. The structures given here were assigned with low confidence; some may be wrong.

Sequences of proteins named here, by UniProt entry; tags and fusion partners are left off. Residues count along the entry.
UniProt Q9NQV7, 195-385 limits assumed: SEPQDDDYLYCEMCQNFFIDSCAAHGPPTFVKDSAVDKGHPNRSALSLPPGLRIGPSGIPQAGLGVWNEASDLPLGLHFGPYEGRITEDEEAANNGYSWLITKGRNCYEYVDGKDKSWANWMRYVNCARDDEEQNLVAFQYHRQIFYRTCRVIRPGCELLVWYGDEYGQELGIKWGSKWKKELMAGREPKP

As usually defined, the pIC50 is the IC50 on a negative log10 scale, so that one unit is a factor of ten.

In the experiment the target is hPRDM9 (amino acids 195-385) (Homo sapiens, UniProt Q9NQV7). Kind of experiment: PRDM9 biochemical assay (radiometric, 3[H] methyl transfer from SAM to biotinylated histone H3 peptide). The note with it: read-out: PRDM9 IC50; 1 nM hPRDM9, 1 μM biotinylated H3(1-25)K4 peptide, 5 μM 3[H]-SAM, 55 μM un-labeled SAM, 25° C., 30 minutes. As to the method:
The PRDM9 biochemical assay was carried out using a radiometric format involving the transfer of ^3[H] methyl group from S-adenosyl methionine (SAM) to a biotinylated histone H3 peptide (H3(1-25)K4). 10 mM compounds in DMSO were diluted 20 fold in assay buffer (10 mM Tris-HCl, pH 8.5, 10 mM DTT, and 0.01% Triton X-100) before adding […] to a well in a 384 well polypropylene microplate plate and adding 8 μl of reaction mix (1.25 nM hPRDM9 (amino acids 195-385), 1.25 μM biotinylated H3 peptide in assay buffer). The ^3[H]-SAM and cold SAM stock solutions were diluted to 50 μM and 550 μM respectively in assay buffer before aliquoting 1 μl of 50 μM ^3[H]-SAM, 550 μM SAM into each well to initiate the reaction. The assay was performed at 25° C. at the final concentrations of 1 nM hPRDM9, 1 μM peptide, 5 μM ^3[H]-SAM, and 55 μM un-labeled SAM in assay buffer. The reaction was quenched after 30 minutes by adding 25 μl 7.5 M Guanidine-HCl. Quenched reactions were transferred to streptavidin coated Flashplates, diluted two fold in assay buffer, incubated for 1 hour, and read on a Perkin Elmer Topcount instrument. Compound activity was expressed relative to activity of 0.5% (v/v) DMSO treated samples and fit to a four parameter logistic equation to determine IC50 values.
Regarding `Cc1cc(NC2CC23CCN(c2nc(-c4cc(Cl)cc(Cl)c4)no2)CC3)ccn1` (stereo not drawn), the negative-log IC50 (pIC50) was 4.79.

For the compound `Cc1cc(N2CCOC3(CCN(c4nc(-c5cc(Cl)cc(Cl)c5)no4)CC3)C2)ccn1`, the pIC50 is 5.47.

With `Cc1cc(N2CCC(CCNc3nc(-c4cc(Cl)cc(Cl)c4)no3)CC2)ccn1` [Compound 22], the pIC50 is 4.65.

(Values after patent US20190374526A1, “Substituted Heterocyclic Compounds as Inhibitors of PRDM9” (Merck Sharp & Dohme Corp., priority 2018, published 2019).)
